{"source": "patent US11117946", "about": "(dated 2021)", "experiment": "general procedure: Fmoc solid-phase peptide synthesis; H-Gly-2-chlorotrityl resin (100-200 or 200-400 mesh); DIC/OXYMAPURE or TBTU/DIPEA; DEPBT/DIPEA for Boc-His(Boc)-OH", "settings": "whole synthesis; for crude HPLC purity: analytical reversed phase UHPLC; for crude yield: gross yield based on peptide resin", "note": "Plain letter strings leave the end groups untold."}
{"sequence": "HAEGTFTSDVSSYLEGQAAKEFIAWLVRGRG", "values": [{"measurement": "crude HPLC purity", "setting": "run 1", "result": "about 50%"}, {"measurement": "crude HPLC purity", "setting": "run 2", "result": 52.53, "unit": "%"}, {"measurement": "crude HPLC purity", "setting": "run 3", "result": 64.84, "unit": "%"}, {"measurement": "crude HPLC purity", "setting": "run 4", "result": 60.52, "unit": "%"}, {"measurement": "crude HPLC purity", "setting": "run 5", "result": 60.52, "unit": "%"}, {"measurement": "crude HPLC purity", "setting": "run 6", "result": 44.89, "unit": "%"}, {"measurement": "crude HPLC purity", "setting": "run 7", "result": 63.1, "unit": "%"}, {"measurement": "crude HPLC purity", "setting": "run 8", "result": 55.85, "unit": "%"}, {"measurement": "crude HPLC purity", "setting": "run 9", "result": 52.52, "unit": "%"}, {"measurement": "crude HPLC purity", "setting": "run 10", "result": 52.2, "unit": "%"}, {"measurement": "crude HPLC purity", "setting": "run 11", "result": 74.29, "unit": "%"}, {"measurement": "crude HPLC purity", "setting": "run 12", "result": 60.52, "unit": "%"}, {"measurement": "crude HPLC purity", "setting": "run 13", "result": 56.08, "unit": "%"}, {"measurement": "crude HPLC purity", "setting": "run 14", "result": 57.12, "unit": "%"}, {"measurement": "crude HPLC purity", "setting": "run 15", "result": 68.1, "unit": "%"}, {"measurement": "crude yield", "setting": "run 1", "result": 44, "unit": "%"}, {"measurement": "crude yield", "setting": "run 2", "result": 28, "unit": "%"}, {"measurement": "crude yield", "setting": "run 3", "result": 37, "unit": "%"}, {"measurement": "crude yield", "setting": "run 4", "result": 32, "unit": "%"}, {"measurement": "crude yield", "setting": "run 5", "result": 38, "unit": "%"}, {"measurement": "crude yield", "setting": "run 6", "result": 42, "unit": "%"}, {"measurement": "crude yield", "setting": "run 7", "result": 43, "unit": "%"}, {"measurement": "crude yield", "setting": "run 8", "result": 1, "unit": "%"}, {"measurement": "crude yield", "setting": "run 9", "result": 36, "unit": "%"}, {"measurement": "crude yield", "setting": "run 10", "result": 39, "unit": "%"}, {"measurement": "crude yield", "setting": "run 11", "result": 42, "unit": "%"}, {"measurement": "crude yield", "setting": "run 12", "result": 34, "unit": "%"}, {"measurement": "crude yield", "setting": "run 13", "result": 41, "unit": "%"}]}
